According to PMC6488594:
No constants are given. Whether binding was seen depends on the method and setting. Binding seen in cells or lysates may run through a third protein. Some binding calls cover weakened binding; strength is not graded here. Where a sequence is shown, tags or fusion partners need not be part of it.

Protein sequences, listed by entry. Tags and fused reporters are not part of them.
UniProt P59242: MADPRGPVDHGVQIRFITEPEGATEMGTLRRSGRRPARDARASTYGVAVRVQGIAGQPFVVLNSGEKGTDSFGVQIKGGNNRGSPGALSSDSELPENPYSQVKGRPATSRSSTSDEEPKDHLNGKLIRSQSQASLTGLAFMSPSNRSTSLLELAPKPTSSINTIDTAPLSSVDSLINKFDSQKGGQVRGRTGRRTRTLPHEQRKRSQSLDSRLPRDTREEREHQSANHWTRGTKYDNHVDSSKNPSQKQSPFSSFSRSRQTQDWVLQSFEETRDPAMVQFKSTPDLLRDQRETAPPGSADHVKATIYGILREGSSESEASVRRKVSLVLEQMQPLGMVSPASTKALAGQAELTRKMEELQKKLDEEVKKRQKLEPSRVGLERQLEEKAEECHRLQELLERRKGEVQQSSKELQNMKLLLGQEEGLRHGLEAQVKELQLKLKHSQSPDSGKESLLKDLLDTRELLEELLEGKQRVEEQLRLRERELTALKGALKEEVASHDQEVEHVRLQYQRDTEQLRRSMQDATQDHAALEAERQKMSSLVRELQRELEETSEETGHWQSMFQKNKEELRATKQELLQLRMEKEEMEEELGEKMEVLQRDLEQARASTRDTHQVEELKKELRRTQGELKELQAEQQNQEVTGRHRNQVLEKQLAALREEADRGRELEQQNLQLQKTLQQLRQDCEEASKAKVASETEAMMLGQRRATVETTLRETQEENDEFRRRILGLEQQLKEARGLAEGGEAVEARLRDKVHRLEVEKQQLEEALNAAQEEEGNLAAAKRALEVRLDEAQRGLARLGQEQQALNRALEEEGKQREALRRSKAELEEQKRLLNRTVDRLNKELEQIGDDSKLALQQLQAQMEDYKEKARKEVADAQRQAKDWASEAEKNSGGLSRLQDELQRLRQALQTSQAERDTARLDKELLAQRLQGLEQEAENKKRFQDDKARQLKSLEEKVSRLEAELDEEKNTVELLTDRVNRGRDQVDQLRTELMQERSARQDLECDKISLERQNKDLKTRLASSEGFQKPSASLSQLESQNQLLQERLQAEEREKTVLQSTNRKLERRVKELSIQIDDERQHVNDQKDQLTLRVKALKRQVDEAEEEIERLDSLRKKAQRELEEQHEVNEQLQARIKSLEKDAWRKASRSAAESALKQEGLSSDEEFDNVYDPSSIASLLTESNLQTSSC
UniProt Q60598: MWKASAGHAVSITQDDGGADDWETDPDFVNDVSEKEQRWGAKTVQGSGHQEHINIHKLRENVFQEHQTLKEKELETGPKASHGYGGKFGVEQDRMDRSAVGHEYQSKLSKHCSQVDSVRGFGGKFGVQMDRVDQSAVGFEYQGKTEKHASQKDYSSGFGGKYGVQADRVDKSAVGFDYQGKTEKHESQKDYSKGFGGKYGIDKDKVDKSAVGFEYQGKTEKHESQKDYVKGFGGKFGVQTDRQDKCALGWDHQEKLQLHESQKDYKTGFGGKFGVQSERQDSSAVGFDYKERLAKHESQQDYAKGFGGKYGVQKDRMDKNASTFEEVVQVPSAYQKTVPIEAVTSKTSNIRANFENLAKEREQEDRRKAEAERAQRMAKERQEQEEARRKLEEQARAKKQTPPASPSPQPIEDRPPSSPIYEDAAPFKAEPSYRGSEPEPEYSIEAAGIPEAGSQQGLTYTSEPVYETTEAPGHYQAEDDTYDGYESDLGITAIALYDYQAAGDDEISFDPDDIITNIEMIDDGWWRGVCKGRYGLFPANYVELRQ
UniProt P35579: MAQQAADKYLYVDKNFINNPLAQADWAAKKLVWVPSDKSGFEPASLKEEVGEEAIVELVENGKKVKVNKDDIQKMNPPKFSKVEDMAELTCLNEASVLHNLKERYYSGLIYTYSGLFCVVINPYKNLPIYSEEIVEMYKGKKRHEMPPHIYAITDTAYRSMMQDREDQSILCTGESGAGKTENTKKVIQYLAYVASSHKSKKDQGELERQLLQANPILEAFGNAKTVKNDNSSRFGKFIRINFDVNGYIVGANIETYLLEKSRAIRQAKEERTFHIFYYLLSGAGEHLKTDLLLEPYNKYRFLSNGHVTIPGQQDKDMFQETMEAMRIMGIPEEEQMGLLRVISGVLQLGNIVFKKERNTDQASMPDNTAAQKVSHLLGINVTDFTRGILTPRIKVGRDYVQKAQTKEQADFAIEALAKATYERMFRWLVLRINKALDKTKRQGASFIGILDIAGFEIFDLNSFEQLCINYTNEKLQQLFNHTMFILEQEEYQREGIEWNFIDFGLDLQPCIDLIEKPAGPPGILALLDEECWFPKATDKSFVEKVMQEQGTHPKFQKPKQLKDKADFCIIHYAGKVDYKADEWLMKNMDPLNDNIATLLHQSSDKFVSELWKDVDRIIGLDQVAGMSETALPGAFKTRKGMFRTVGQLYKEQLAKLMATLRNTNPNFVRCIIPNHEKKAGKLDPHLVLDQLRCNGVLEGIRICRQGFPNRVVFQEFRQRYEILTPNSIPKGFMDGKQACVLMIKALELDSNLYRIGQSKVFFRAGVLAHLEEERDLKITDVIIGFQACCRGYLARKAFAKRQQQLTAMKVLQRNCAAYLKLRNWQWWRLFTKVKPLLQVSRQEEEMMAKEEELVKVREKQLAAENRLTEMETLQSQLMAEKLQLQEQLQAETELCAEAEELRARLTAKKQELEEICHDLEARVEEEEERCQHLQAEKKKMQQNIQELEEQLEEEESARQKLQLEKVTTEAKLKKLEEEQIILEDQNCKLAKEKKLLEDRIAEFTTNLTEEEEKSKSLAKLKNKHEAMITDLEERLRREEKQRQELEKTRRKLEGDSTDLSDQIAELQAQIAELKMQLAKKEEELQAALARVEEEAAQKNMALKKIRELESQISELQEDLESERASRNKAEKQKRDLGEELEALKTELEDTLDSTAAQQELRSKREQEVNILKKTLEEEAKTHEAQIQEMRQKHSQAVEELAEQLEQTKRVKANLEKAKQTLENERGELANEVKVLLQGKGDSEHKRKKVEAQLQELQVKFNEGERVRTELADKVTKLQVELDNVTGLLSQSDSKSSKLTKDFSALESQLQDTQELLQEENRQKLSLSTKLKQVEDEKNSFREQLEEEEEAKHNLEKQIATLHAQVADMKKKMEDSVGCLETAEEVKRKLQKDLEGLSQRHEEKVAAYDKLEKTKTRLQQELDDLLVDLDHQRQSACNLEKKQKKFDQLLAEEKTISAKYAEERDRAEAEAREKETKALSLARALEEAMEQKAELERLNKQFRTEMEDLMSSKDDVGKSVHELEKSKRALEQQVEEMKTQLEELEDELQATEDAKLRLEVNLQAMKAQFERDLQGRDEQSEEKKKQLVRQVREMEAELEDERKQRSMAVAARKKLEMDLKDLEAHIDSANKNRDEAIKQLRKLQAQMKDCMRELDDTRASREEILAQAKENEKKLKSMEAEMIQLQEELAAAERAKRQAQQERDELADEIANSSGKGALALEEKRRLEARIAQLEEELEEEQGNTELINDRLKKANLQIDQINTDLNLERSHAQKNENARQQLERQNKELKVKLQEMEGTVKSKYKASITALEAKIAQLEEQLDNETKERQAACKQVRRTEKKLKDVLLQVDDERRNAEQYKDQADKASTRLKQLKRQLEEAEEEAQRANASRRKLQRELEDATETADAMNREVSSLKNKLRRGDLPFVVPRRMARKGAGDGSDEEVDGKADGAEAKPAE

Target: T1, EPRp-FLAG (small EPR-encoded peptide, FLAG-tagged) (mouse) (UniProt Q3V2G4)
T1 sequence: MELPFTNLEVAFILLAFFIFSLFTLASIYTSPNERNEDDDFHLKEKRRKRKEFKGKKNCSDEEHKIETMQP
Test: co-IP; coimmunoprecipitation of FLAG-tagged EPRp and junctional proteins in total extracts from NMuMG cells stably transfected with EPRp-FLAG; immunoblots with the indicated antibodies

**Q.** With “CGN (Cingulin) (from UniProt P59242 1-1191)” as the molecule, how does the binding read?
**A.** The binding was “binds”.

**Q.** “CTTN (Cortactin) (from UniProt Q60598 1-546)” was tested. Which binding did it give?
**A.** The binding was “binds”.

**Q.** For “MYH9 (epithelial myosin-II) (from UniProt P35579 1-1960)”, which binding is on record?
**A.** Its binding is “binds”.

B1: CGNL1 (Paracingulin) (protein, UniProt Q6AW69 1-1297)
chain: MELYFGEYQHVQQEYGVHLRLASGDTPKPRNSQPSKAGSYGVSIRVQGIDGHPYIVLNNTERCLAGTPFPENAPSFPSSVINNLSLHPSNGTVLKENTPEELQLPENPYLQTSPLRGQKQFSLHEGRNGVLERKDGPTKLPHVLNFQRHPELLQPYDPEKNEVNAKKHHPPESPWLRNATEDGTNCKKSRNCFPKSYGSQPNSPTSEDLAKTNMTAIRLCSSVVIEDPQKQTSVCVNVQRCAKEGVGEETLSPRRKSPTAPSPQAYSETKKNRPDVLPFRRQDSAGPILDGARSRRSSSSSTTPTSATSLYKFLLDDQECAIHADSVNRHENRRYIPFLPGTGRDIDTCSIPGVDQLIEKFDQKPGLQRRGRSGKRNRINPDDRKRSRSVDSAFPFGLQGNTEYLTEFSRNLGKSSEHLLRPSQVFPQRSVAQEHRGKHSPSSPPAKLQGAQGAHPKPPLQNKDGKVLNKGRQESTGACAPSLPAPNKKEEEIKIATATLMLQNRAVAATSDSGAKKISVKTFPSDSSTQATPDLLKGQQELTQQTNEETAKQILYNYLKEGGTDNEDATKRKVNLVFEKIQTLKSRAAGSAQGSNQAPNSPSEGNSLLDQKNKLILEVSELQQQLQLEMKNQQNIKEERERMREDLEELRVRHQSQVEETATLQRRLEESEGELRKSLEELFQVKMEREQHQTEIRDLQDQLSEMHDELDSTKRSEDREKGALIEELLQAKQDLQDLLIAKEEQEDLLRKRERELTALKGALKEEVSSHDQEMDKLKEQYDAELQALRESVEEATKNVEVLASRSNSSEQSQAEADLREKVLKEENEKLQGRIAELERRAAQLQRQMEDVKGDEAQAKETLRKCESEVQQLEEALVHARKEEKEATCARRALEKELEQARRELSQVSQEQKELLEKLRDEAEQKEQLRKLKNEMESERWHLDKTIEKLQKEMADIAEASRTSSLELQKQLGEYKEKNRRELAEMQTQLKEKCLEVEKARLAASKMQDELRLKEEELQDYQRAEEEALTKRQLLEQSLKDLEYELEAKSHLKDDRSRLIKQMEDKVSQLEIELEEERTNADLLSERITWSREQMEQMRSELLQEKAAKQDLECDKISLERQNKDLKSRIIHLEGSYRSSKEGLVVQMEARIAELEDRLENEERDRANLQLSNRRLERKVKELVMQVDDEHLSLTDQKDQLSLRLKAMKRQVEEAEEEIDRLESSKKKLQRELEEQMGVNEQLQGQLNSLKKGLRLKTLSSKVLDDSDDDDLSSDAGSLYEAPLSYAFPKDSTIASQI
**Q.** How did the binding turn out when B1 was run?
**A.** The binding was “binds”.
